Source: patent US20080171037A1, “Apo-3 ligand polypeptide” (Genentech, Inc., priority 1997, published 2008)
These are yes or no findings as the source states them, for the method shown. For part of these data: In cells and extracts the contact can be indirect. Some binding calls cover weakened binding; strength is not graded here. Tags and fused reporters may be left off the sequences shown.

What was measured:
[1] = molecular target: T1, Flag-epitope tagged soluble Apo-3 (human) (UniProt Q93038); assay: Western blot of co-immunoprecipitated ligands/receptors (legend of FIG. 8A)
T1 sequence (looked up): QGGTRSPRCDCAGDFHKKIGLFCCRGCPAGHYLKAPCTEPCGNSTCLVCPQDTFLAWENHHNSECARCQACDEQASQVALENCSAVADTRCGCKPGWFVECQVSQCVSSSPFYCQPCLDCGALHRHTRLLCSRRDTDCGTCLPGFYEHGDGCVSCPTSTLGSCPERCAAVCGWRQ

[2] = molecular target: T1, Flag-epitope tagged soluble Apo-3 (human); assay: apoptosis assay after immunodepletion of ligand-receptor complexes (legend of FIG. 8B)
[3] = molecular target: T1, Flag-epitope tagged soluble Apo-3 (human); assay: co-immunoprecipitation (anti-Flag sepharose or nickel-sepharose), Western blot with nickel-conjugated HRP

binding [1]: binds
binding [2]: binds
binding [3]: binds
B1: His-tagged soluble Apo-3 Ligand (ligand)
chain: MGHHHHHHHHHHSSGHIDDDDKHMRASLSAQEPAQEELVAEEDQDPSELNPQTEESQDPAPFLNRLVRPRRSAPKGRKTRARRAIAAHYEVHPRPGQDGAQAGVDGTVSGWEEARINSSSPLRYNRQIGEFIVTRAGLYYLYCQVHFDEGKAVYLKLDLLVDGVLALRCLEEFSATAASSLGPQLRLCQVSGLLALRPGSSLRIRTLPWAHLKAAPFLTYFGLFQVH
